Test results from patent US20120190819A1 (MEDICAL RESEARCH COUNCIL, published 2012).
Results are given in words; binding and its absence hold for the method and conditions named. In cells and extracts the contact can be indirect. Some entries that bind do so weakly or less than the wild type.

Tests used:
[1] = target: T1, carboxymethylated papain on agarose beads (Calbiochem) (UniProt P00784); assay: papain-agarose pull-down, western blot
T1 sequence (carboxymethylated, looked up): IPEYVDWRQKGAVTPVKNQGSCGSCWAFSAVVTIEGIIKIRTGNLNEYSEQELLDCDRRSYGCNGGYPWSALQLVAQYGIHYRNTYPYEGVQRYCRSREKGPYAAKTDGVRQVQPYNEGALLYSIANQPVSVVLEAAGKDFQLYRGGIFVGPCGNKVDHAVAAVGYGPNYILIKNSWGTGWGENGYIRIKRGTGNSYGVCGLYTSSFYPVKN

[2] = target: T1, carboxymethylated papain on agarose beads (Calbiochem); assay: papain-agarose pull-down, western blot (FIG. 4A)

- binding [1]: binds
- binding [2]: binds
B1: wild type Stefin A (human, recombinant) (other)
chain: MIPGGLSEAKPATPEIQEIVDKVKPQLEEKTNETYGKLEAVQYKTQVVAGTNYYIKVRAGDNKYMHLKVFKSLPGQNEDLVLTGYQVDKNKDDELTGF
notes: Expressed in E. coli from pET30a(+) with a hexa-histidine tag; also called SteA; Cystatin A
